# Test results reported in the supplement of paper PMC10373366.
# The list shows a part of the results. Single values are uncertain, as repeats are few or missing.
# Assays:
# A2780 = assay: cell growth inhibition ratio vs untreated control (CCK8); higher = stronger inhibition of cell viability; settings: 10 µM; 48 h
# Description: (§1)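 Natural product library (Topscience) screened at 10 µM final concentration for 48 h on ovarian cancer A2780 cells and patient-derived ovarian cancer cells (PDC) in 96-well plates; viability read by CCK8 and reported as inhibition ratio (%) relative to untreated control. Single-dose primary screen.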
# [1] = tested on: patient-derived ovarian cancer cells (PDC); assay: as above; settings: 10 µM; 48 h
# Description: as §1
SMILES,cell growth inhibition ratio (A2780) [%],cell growth inhibition ratio [1] [%]
OCc1ccc(O[C@@H]2O[C@H](CO)[C@@H](O)[C@H](O)[C@H]2O)cc1 [Gastrodin],-0.967,-10.2
CC(=O)c1ccc(O)c(C(=O)O)c1 [5-Acetylsalicylic acid],14,-12.7
COC(=O)C[C@](O)(CCCC(C)(C)O)C(=O)O[C@@H]1C(OC)=C[C@]23CCCN2CCc2cc4c(cc2[C@H]13)OCO4 [Homoharringtonine],93.7,89.5
COc1cc(C=CC(=O)O)cc(OC)c1O [Sinapinic Acid],4.1,-5.49
COc1cc(C2Oc3ccc(C4Oc5cc(O)cc(O)c5C(=O)C4O)cc3OC2CO)ccc1O (stereo not given) [Isosilybin],13.3,-0.257
C=C1C(=O)O[C@@H]2/C=C(\C)CC/C=C(\C)CC[C@@H]12 [Costunolide],11.9,9.67
N[C@@H](Cc1cc(I)c(Oc2cc(I)c(O)c(I)c2)c(I)c1)C(=O)O [L-Thyroxine],28.5,-8.75
O=c1cc(-c2ccc(O)c(O)c2)oc2cc(O[C@@H]3O[C@H](CO)[C@@H](O)[C@H](O)[C@H]3O)cc(O)c12 [Cynaroside],29.7,-10.4
OC1COC(O)C(O)C1O (stereo not drawn) [L(+)-Arabinose],4.11,-0.374
OC[C@H]1O[C@@H](Oc2c(O)cc(O)cc2/C=C/c2ccc(O)cc2)[C@H](O)[C@@H](O)[C@@H]1O [Astragalus polyphenols],-3,-11.6

# Two compounds drawn at random from the list so far, as already listed:
SMILES,cell growth inhibition ratio (A2780) [%],cell growth inhibition ratio [1] [%]
COc1cc(C=CC(=O)O)cc(OC)c1O [Sinapinic Acid],4.1,-5.49
N[C@@H](Cc1cc(I)c(Oc2cc(I)c(O)c(I)c2)c(I)c1)C(=O)O [L-Thyroxine],28.5,-8.75
